Substrate in this series: Nc1ncnc2c1ncn2[C@@H]1O[C@H](COP(=O)(O)OS(=O)(=O)O)[C@@H](O)[C@H]1O
In words: purified protein, by the assay type. To be noted: other: substrate of NPPase from barley leaves; pH 7.0.

B1: NPPase from barley leaves (Hordeum vulgare) (protein)
chain: SDGSVVWAKPYTFRAPPTPGQNSLQRIIVFGDMGKAERDGSNEFANYQPGSLNTTDRLIEDLDNYDIVFHIGDMPYANGYLSQWDQFTAQVAPISAKKPYMVASGNHERDWPNTGGFFDVKDSGGECGVPAETMYYYPAENRANFWYKVDYGMFRFCVGDSEHDWREGTPQYKFIEECLSTVDRKHQPWLIFTAHRVLGYSSNSWYADQGSFEEPEGRESLQKLWQRYRVDIAYFGHVHNYERTCPLYQSQCVNADKTHYSGTMNGTIFVVAGGGGSHLSSYTTAIPKWSIFRDHDYGFTKLTAFNHSSLLFEYMKSSDGKVYDSFTIHRDYRDVLSCVHDSCFPTTLAS
The Km is the concentration of substrate that gives half-maximal velocity. Consider B1, for which the Km stood at 500 µM.

The values above are taken from US20060242739A1, “Plant nucleotide-sugar pyrophosphatase/phosphodiesterase (nppase), method of obtaining same and use of same in the production of assay devices and in the production of transgenic plants” (Universidad Publica De Navarra, priority 2002, published 2006).
